PubChem BioAssay AID686943 – Drosophila RNAi Screening Center – 2013
The screen tested about 23,000 reagents; this is a random part of those with a known target gene and a result. 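Extra replicates exist only for a retested subset of genes; insulin dose and duration not given; both raised and lowered dpERK matter.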 Reagents against one gene are numbered here. Names joined by + are all predicted targets of the reagent. Further read-outs or replicates are left out here. Reagent sequences are not shown. Not stated in the record: the amount of reagent, the time to read-out.

Assay: 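Knockdowns that increase or decrease active ERK after insulin receptor stimulation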 (primary screen)
Cells: Drosophila S2R+ haemocyte-like cells expressing YFP-tagged ERK (Rolled)
Reagent: long dsRNA against Drosophila genes
Treatment: insulin stimulation versus unstimulated cells; dose and duration not given
Detection: 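Antibody staining for doubly phosphorylated ERK divided by ERK-YFP signal, as plate z-scores, in insulin-treated and untreated cells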
Scale: replicate 1, z-score of dpERK with insulin and replicate 2, z-score of dpERK with insulin: higher = more active ERK per ERK-YFP after insulin

Cpr65Ax2 + Cpr65Ax1 #1: replicate 1, z-score of dpERK with insulin = 0.2; replicate 2, z-score of dpERK with insulin = 0.29
Cpr65Ax2 + Cpr65Ax1 #2: replicate 1, z-score of dpERK with insulin = 0.64; replicate 2, z-score of dpERK with insulin = -0.02
Slh #1: replicate 1, z-score of dpERK with insulin = -0.35; replicate 2, z-score of dpERK with insulin = -0.1
Slh #2: replicate 1, z-score of dpERK with insulin = 1.94; replicate 2, z-score of dpERK with insulin = 2.57
CG11597: replicate 1, z-score of dpERK with insulin = 0.07; replicate 2, z-score of dpERK with insulin = -0.97
PQBP1: replicate 1, z-score of dpERK with insulin = 0.03; replicate 2, z-score of dpERK with insulin = -0.74
lmd: replicate 1, z-score of dpERK with insulin = 0.82; replicate 2, z-score of dpERK with insulin = -0.1
pes: replicate 1, z-score of dpERK with insulin = -0.05; replicate 2, z-score of dpERK with insulin = -0.45
DCTN2-p50: replicate 1, z-score of dpERK with insulin = 0.15; replicate 2, z-score of dpERK with insulin = 0.51
aust: replicate 1, z-score of dpERK with insulin = 0.12; replicate 2, z-score of dpERK with insulin = 0.63
CG13171: replicate 1, z-score of dpERK with insulin = 0.51; replicate 2, z-score of dpERK with insulin = -0.44
tea #1: replicate 1, z-score of dpERK with insulin = -0.27; replicate 2, z-score of dpERK with insulin = -0.33
tea #2: replicate 1, z-score of dpERK with insulin = 0.23; replicate 2, z-score of dpERK with insulin = 0.3
CG5412: replicate 1, z-score of dpERK with insulin = 0.04; replicate 2, z-score of dpERK with insulin = -0.14
Trs31: replicate 1, z-score of dpERK with insulin = 0.68; replicate 2, z-score of dpERK with insulin = 0.3
CG2875: replicate 1, z-score of dpERK with insulin = -0.41; replicate 2, z-score of dpERK with insulin = -0.35
CG14742: replicate 1, z-score of dpERK with insulin = 0.24; replicate 2, z-score of dpERK with insulin = 0.76
Muc68E: replicate 1, z-score of dpERK with insulin = 1.05; replicate 2, z-score of dpERK with insulin = 0.11
betaNACtes1: replicate 1, z-score of dpERK with insulin = 1.6; replicate 2, z-score of dpERK with insulin = 0.65
RpL27: replicate 1, z-score of dpERK with insulin = 0.15; replicate 2, z-score of dpERK with insulin = -0.66
CG8611: replicate 1, z-score of dpERK with insulin = -0.3; replicate 2, z-score of dpERK with insulin = 0.34
LysD + LysB + LysC (retired record): replicate 1, z-score of dpERK with insulin = 0.26; replicate 2, z-score of dpERK with insulin = -0.1
RNaseX25: replicate 1, z-score of dpERK with insulin = 0.07; replicate 2, z-score of dpERK with insulin = 0.03
Obp83a: replicate 1, z-score of dpERK with insulin = -0.52; replicate 2, z-score of dpERK with insulin = 0.84
CG13954: replicate 1, z-score of dpERK with insulin = -0.11; replicate 2, z-score of dpERK with insulin = 0.19
CG11085 #1: replicate 1, z-score of dpERK with insulin = 1.16; replicate 2, z-score of dpERK with insulin = 0.56
CG11085 #2: replicate 1, z-score of dpERK with insulin = 0.74; replicate 2, z-score of dpERK with insulin = 0.91
gny: replicate 1, z-score of dpERK with insulin = 0.29; replicate 2, z-score of dpERK with insulin = 0.38
lbm: replicate 1, z-score of dpERK with insulin = -0.06; replicate 2, z-score of dpERK with insulin = -0.1
CG13545: replicate 1, z-score of dpERK with insulin = 0.05; replicate 2, z-score of dpERK with insulin = 0.2
CG32832: replicate 1, z-score of dpERK with insulin = 0.07; replicate 2, z-score of dpERK with insulin = 0.41

5 entries already listed, ordered by “replicate 1, z-score of dpERK with insulin”, low to high.
pes: replicate 1, z-score of dpERK with insulin = -0.05; replicate 2, z-score of dpERK with insulin = -0.45
PQBP1: replicate 1, z-score of dpERK with insulin = 0.03; replicate 2, z-score of dpERK with insulin = -0.74
CG11597: replicate 1, z-score of dpERK with insulin = 0.07; replicate 2, z-score of dpERK with insulin = -0.97
lmd: replicate 1, z-score of dpERK with insulin = 0.82; replicate 2, z-score of dpERK with insulin = -0.1
Slh #2: replicate 1, z-score of dpERK with insulin = 1.94; replicate 2, z-score of dpERK with insulin = 2.57
